Data as given in PubChem BioAssay AID1259308 (NCATS, 2017).
The whole screen tested about 59,000 reagents; below is a random part of them. About 1,510 of them (2.6%) count as active. 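Calls use total luciferase alone and ignore viability, so some active siRNAs may act by altering cell number.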 Unmarked entries are inactive. Reagents against one gene are numbered here. Not all columns of the deposit are shown. Reagent sequences are not shown.

Test: 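Genes whose loss raises luciferase production in HEK293 cells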 (primary screen)
Cell system: human HEK293 embryonic kidney cells stably expressing firefly luciferase (HEK-CMV-Luc2-Hygro)
Reagent: single siRNA against human genes, 0.8 pmol siRNA per well
Time to read-out: 72 h
Detection: 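Reporter luminescence and viable-cell signal on separate replicate plates, given as percent of non-targeting control and median/MAD z-scores, plus per-cell luciferase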
Scale: total luciferase, z-score: higher = more reporter protein produced
Active means: 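An siRNA counts as active if its total luciferase robust z-score exceeds 3; genes with two or more such siRNAs out of three were retested with fresh siRNAs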
Calls: active = raised luciferase; inactive = no rise

target | reagent no. | total luciferase, z-score
TMEM17 (transmembrane protein 17) | 1 | -2.43
TMEM17 (transmembrane protein 17) | 2 | -0.823
TMEM17 (transmembrane protein 17) | 3 | 1.24
TSHR (thyroid stimulating hormone receptor) | 1 | 0.4
TSHR (thyroid stimulating hormone receptor) | 2 | 1.16
TSHR (thyroid stimulating hormone receptor) | 3 | -0.66
H2BC7 (H2B clustered histone 7) | 1 | -0.826
H2BC7 (H2B clustered histone 7) | 2 | -0.641
H2BC7 (H2B clustered histone 7) | 3 | 0.394
DOP1B (DOP1 leucine zipper like protein B) | 1 | 0.644
DOP1B (DOP1 leucine zipper like protein B) | 2 | 0.162
DOP1B (DOP1 leucine zipper like protein B) | 3 | -0.515
C1R (complement C1r) | 1 | 0.831
C1R (complement C1r) | 2 | -1.1
C1R (complement C1r) | 3 | -2.86
GOLT1A (golgi transport 1A) | 1 | 1.19
GOLT1A (golgi transport 1A) | 2 | 1.78
GOLT1A (golgi transport 1A) | 3 | -1.36
ACSM2B (acyl-CoA synthetase medium chain family member 2B) | 1 | -0.622
ACSM2B (acyl-CoA synthetase medium chain family member 2B) | 2 | 0.679
ACSM2B (acyl-CoA synthetase medium chain family member 2B) | 3 | 0.18
MMP20 (matrix metallopeptidase 20) | 1 | 0.331
MMP20 (matrix metallopeptidase 20) | 2 | -0.682
MMP20 (matrix metallopeptidase 20) | 3 | 0.0281
